{
  "sequences": {"note": "The chains behind the UniProt entries cited, without tags or fusion partners.", "UniProt P29350": "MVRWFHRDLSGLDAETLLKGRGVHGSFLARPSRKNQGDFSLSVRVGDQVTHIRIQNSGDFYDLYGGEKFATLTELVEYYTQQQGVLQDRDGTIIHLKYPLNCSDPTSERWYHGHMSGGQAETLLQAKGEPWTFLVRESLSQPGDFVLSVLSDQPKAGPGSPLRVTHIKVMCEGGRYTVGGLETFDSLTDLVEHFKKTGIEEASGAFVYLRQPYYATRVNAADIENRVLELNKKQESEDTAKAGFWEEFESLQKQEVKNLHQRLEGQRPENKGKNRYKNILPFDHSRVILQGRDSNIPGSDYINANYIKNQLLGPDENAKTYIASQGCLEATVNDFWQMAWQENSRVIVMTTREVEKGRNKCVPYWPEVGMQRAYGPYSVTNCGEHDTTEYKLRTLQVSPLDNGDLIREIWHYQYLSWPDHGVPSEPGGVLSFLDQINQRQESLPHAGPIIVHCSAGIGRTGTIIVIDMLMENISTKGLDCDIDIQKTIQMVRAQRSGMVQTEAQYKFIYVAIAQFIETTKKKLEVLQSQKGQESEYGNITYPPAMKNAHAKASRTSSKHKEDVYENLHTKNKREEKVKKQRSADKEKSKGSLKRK"},
  "source": "paper PMC8683481",
  "target": "T1, SFB-tagged LIFR protein (leukemia inhibitory factor receptor) (human) (UniProt P42702)",
  "T1 sequence": "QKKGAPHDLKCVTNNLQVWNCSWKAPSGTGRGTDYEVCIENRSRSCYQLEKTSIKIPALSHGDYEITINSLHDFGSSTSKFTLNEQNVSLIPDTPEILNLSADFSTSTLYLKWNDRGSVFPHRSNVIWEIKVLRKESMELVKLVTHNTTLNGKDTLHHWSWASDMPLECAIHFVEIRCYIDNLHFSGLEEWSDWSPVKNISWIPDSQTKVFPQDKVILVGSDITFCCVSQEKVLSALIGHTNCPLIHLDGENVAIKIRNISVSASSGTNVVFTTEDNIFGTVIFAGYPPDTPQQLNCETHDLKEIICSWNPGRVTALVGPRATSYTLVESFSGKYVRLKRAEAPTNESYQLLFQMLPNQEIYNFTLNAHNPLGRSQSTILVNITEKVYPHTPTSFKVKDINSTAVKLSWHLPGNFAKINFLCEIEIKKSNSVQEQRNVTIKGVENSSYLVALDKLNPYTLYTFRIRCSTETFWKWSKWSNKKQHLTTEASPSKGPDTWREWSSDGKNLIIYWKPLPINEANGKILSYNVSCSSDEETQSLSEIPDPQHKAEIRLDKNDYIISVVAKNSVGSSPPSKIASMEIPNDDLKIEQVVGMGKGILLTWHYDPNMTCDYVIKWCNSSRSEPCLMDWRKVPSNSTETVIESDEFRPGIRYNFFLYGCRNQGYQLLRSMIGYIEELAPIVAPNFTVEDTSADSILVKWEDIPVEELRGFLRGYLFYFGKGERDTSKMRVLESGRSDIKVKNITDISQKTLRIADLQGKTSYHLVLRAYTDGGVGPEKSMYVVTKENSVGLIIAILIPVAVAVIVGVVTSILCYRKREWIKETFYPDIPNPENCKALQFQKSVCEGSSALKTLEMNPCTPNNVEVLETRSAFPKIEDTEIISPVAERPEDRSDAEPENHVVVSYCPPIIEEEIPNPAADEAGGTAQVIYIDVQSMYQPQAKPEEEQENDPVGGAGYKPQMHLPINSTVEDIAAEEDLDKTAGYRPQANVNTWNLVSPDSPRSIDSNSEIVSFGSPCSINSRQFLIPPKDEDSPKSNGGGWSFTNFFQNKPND",
  "test": "pull-down; HEK293T cells co-transfected with SHP1 or SHP2 and SFB-tagged GFP or LIFR; lysed after 48 h in CHAPS buffer (120 mM NaCl, 20 mM NaF, 1 mM EDTA, 25 mM Tris-HCl pH 7.5, 0.33% CHAPS); SFB-tagged bait held on S-protein beads, 4 °C, 2 h; 5 washes; Western blot",
  "note": "Results are given in words; binding and its absence hold for the method and conditions named. In cells and extracts the contact can be indirect. Some binding calls cover weakened binding; strength is not graded here. Tags and fused reporters may be left off the sequences shown.",
  "data": [
    {"substance": "HA-FLAG-SHP1 (from UniProt P29350 1-595) (enzyme)", "values": [
      {"measurement": "binding", "result": "binds"}
    ]}
  ]
}
